Reference: US9358250B2, “Methods of using SCD1 antagonists” (Genentech, Inc., priority 2011, dated 2016)
Where two headings read alike, the source gives them in different places. For at least one compound, name, drawing or mass did not settle the structure.

Experiments:
SCD1 [1] = molecular target: T1, SCD1 (Homo sapiens, UniProt O00767); details: cited from earlier work
T1 sequence (O00767 1-359): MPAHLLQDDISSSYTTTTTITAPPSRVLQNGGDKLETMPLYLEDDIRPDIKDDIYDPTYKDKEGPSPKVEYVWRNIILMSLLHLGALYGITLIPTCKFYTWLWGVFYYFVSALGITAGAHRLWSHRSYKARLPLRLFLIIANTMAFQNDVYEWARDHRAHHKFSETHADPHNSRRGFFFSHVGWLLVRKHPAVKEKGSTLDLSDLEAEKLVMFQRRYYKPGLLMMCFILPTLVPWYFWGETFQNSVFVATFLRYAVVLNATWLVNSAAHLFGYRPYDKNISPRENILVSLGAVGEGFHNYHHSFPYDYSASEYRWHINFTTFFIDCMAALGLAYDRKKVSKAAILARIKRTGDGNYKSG

SCD1 [2] = molecular target: T1, SCD1; details: cited from earlier work; remark: listed apart in the source
[3] = test system: SREBP1 maturation, SCD1 and FASN expression; assay: Western blot, FGF1-treated RT112 cells; type: cell-based, human
Experimental: (§1) FIG. 8. FGFR3 signalling promotes the accumulation of matured SREBP1 and lipogenesis via PI3K-mTORC1 pathway. (A) Pharmacological inhibition of FGFR3 signalling. RT112 cells were serum starved for 20 hr, then treated with rapamycin (50 nM), Ly294002 (Ly294, 20 μM) and PD325901(PD901, 100 nM) for 2 hr, followed by stimulation with 30 ng/ml FGF1 plus 10 μg/mL of heparin for 10 min. Cell lysates were subjected to immunoblot analyses with indicated antibodies. Note the increased phosphorylation of MEK upon PD901 treatment, presumably due to a relief of feedback inhibition. (B) PI3K-mTORC1 and MEK inhibitors block FGF1 induction of SREBP1 and SCD1 in RT112 cells. RT112 cells were serum starved for 20 hr, treated with kinase inhibitors for 4 hr, followed by 24 hr incubation in medium supplemented with 30 ng/ml FGF1. Cell lysates were immunoblotted to detect SREBP1 maturation, SCD1 and FASN expression. (C) PI3K-mTORC1 and MEK inhibitors block FGF1-stimulated lipid synthesis. RT112 cells were treated the same as described in (B). [^14C]acetate was added for the final 4 hr incubation. The lipid fraction was extracted and [^14C]acetate incorporated into lipids was measured by scintillation counting. Data were normalized to sample protein content, and presented as mean+/−SD.
(§2) It's worth noting that in Ca129 bladder cancer cells, rapamycin and Ly294002 blocked the accumulation of active SREBP1 and the expression of SCD1, consistent with the results observed in RT112 cells (FIG. 9). […] Thus, in bladder cancer cells, FGFR3 mainly signals through PI3K-mTORC1 axis to promote SREBP1 cleavage and activation, resulting in elevated de novo lipogenesis and fatty acid desaturation. The contribution of MEK-MAPK pathway may be cell line- and/or context-dependent.

[4] = test system: phosphorylation of AKT, S6, and MAPK; assay: Western blot, FGF1-stimulated RT112 cells; type: cell-based, human; details: rapamycin 50 nM, Ly294002 20 μM, PD325901 100 nM
Experimental: as §1, with “mean+/−SD. […]” for “mean+/−SD.”

[5] = test system: matured SREBP1 and SCD1 expression; assay: Western blot, FGF1-treated Ca129 cells; type: cell-based, human
Experimental: FIG. 9. FGFR3 signalling promotes the accumulation of matured SREBP1 and SCD1 expression via PI3K-mTORC1 pathway but not MEK-MAPK pathway in Ca129 cells. Ca129 cells were serum starved for 20 hr, treated for 4 hr with vehicle (DMSO), 50 nM rapamycin (Rapa), Ly294002 (Ly294, 20 μM) and PD325901(PD901, 100 nM). Then cells were cultured in medium supplemented with 30 ng/ml FGF1 for 24 hr. Cell lysates were analyzed by Western blot.
as §2

[6] = test system: total fatty acid synthesis; assay: FGF1-stimulated lipid synthesis, [^14C]acetate, RT112 cells; type: cell-based, human
Experimental: as §1, with “(C) PI3K-mTORC1 and MEK inhibitors block FGF1-stimulated lipid synthesis. RT112 cells were treated the same as described in (B). [^14C]acetate was added for the final 4 hr incubation.” left out, “Data were normalized to sample protein content, and presented as mean+/−SD.” left out
Lipogenic activity was determined by monitoring the incorporation of [1,2-^14C] acetate (Perkin Elmer, Waltham, Mass.) into fatty acids as reported (39). […] The fatty acids fractions were collected, dried under a steam of nitrogen, and analyzed by scintillation counting. The [^14C] radioactivity was normalized to sample protein content. […]

SMILES | IC50 (SCD1 [1]) | IC50 (SCD1 [2]) | FASN expression [3] | SCD1 expression [3] | basal and FGF1-induced level of the cleaved active SREBP1 [3] | FGF1-induced activation of intended target (phosphorylation) [4] | accumulation of active SREBP1 [5] | expression / induction of SCD1 [5] | total fatty acid synthesis stimulated by FGF1 [6]
COc1ccc(C(=O)Nc2ncc(Cc3cccc(C(F)(F)F)c3)s2)cc1OCCO [Compound 63] | < 1000 nM |  |  |  |  |  |  |  | 
NC(=O)CNC(=O)c1cnn2cc(Cc3cccc(Cl)c3Cl)cnc12 [Compound 70] |  | 22 nM |  |  |  |  |  |  | 
O=c1cc(N2CCOCC2)oc2c(-c3ccccc3)cccc12 [Ly294002] |  |  | reduced only modestly | diminished significantly | substantially reduced | blunted FGF1-induced activation of their intended target | blocked | blocked | markedly suppressed
CO[C@H]1C[C@@H]2CC[C@@H](C)[C@@](O)(O2)C(=O)C(=O)N2CCCC[C@H]2C(=O)O[C@H]([C@H](C)C[C@@H]2CC[C@@H](O)[C@H](OC)C2)CC(=O)[C@H](C)/C=C(\C)[C@@H](O)[C@@H](OC)C(=O)[C@H](C)C[C@H](C)/C=C/C=C/C=C/1C [rapamycin] |  |  | reduced only modestly | diminished significantly | substantially reduced | blunted FGF1-induced activation of their intended target | blocked | blocked | markedly suppressed
